# In the supplement of paper PMC6331611:
# ± gives the standard deviation of the averaged measurements. Over roughly 1,600 compounds, “normalized growth (OD600, IQM-normalized) in LPM” has its median near 1; the lowest 2% begin near 0.014. The list shows a part of the results.
# Tested on: Salmonella enterica serovar Typhimurium SL1344
# Assay: normalized growth (OD600, IQM-normalized) in LPM (fraction of plate interquartile mean); higher = more bacterial growth (less inhibition)
# Details: LPM pH 5.8; 10 µM; 16 h
row,Compound,normalized growth
1,CC(=O)NO,1.084 ± 0.0087
2,CC(=O)N[C@@H](CCC(N)=O)C(=O)O,1.22 ± 0.074
3,CC(C)(S)[C@@H](N)C(=O)O,1.083 ± 0.0063
4,O=C(O)C1CSCN1 (stereo unspecified),0.963 ± 0.037
5,CCC(=O)OCC(=O)[C@@]1(OC(=O)CC)[C@H](C)CC2C3C([C@@H](O)C[C@@]21C)[C@@]1(C)C=CC(=O)C=C1C[C@H]3Cl (stereo partly specified),1.03 ± 0.019
6,O=C1O[C@H](CO)[C@@H](O)[C@H](O)[C@H]1O,1.01 ± 0.054
7,CCCCCCCCCCC[C@@H](C[C@@H]1OC(=O)[C@H]1CCCCCC)OC(=O)[C@H](CC(C)C)NC=O,0.762 ± 0.019
8,Nc1ncnc(Nc2ccc(Cl)cc2)n1,0.999 ± 0.071
9,CN1CCN(C2=Nc3cc(Cl)ccc3Nc3ccccc32)CC1,0.98 ± 0.04
10,CCCCCCCCCCCCCCCC(=O)NCCO,0.942 ± 0.046
11,CO[C@H]1O[C@@H]2O[C@@]3(C)CC[C@H]4[C@H](C)CC[C@@H]([C@H]1C)[C@@]24OO3,0.871 ± 0.097
12,NC12CC3CC(CC(C3)C1)C2,0.919 ± 0.034
13,Clc1ccc(COC(Cn2ccnc2)c2ccc(Cl)cc2Cl)c(Cl)c1 (stereo unspecified),1.05 ± 0.017
14,Cc1cc(=O)n(-c2ccccc2)n1C,0.9974 ± 0.0087
15,CC1CCc2c(N3CCC(O)CC3)c(F)cc3c(=O)c(C(=O)O)cn1c23 (stereo unspecified),0.0179 ± 0.013
16,O=C1Cc2cc(CCN3CCN(c4nsc5ccccc45)CC3)c(Cl)cc2N1,1.05 ± 0.027
17,CC(C)/N=c1\cc2n(-c3ccc(Cl)cc3)c3ccccc3nc-2cc1Nc1ccc(Cl)cc1,0.965 ± 0.029
18,CC(=O)N(O)CCCCCNC(=O)CCC(=O)N(O)CCCCCNC(=O)CCC(=O)N(O)CCCCCN,0.598 ± 0.051
19,CN1CC(=O)NC1=N,1.12 ± 0.032
20,CC(C)(C(=O)c1cccnc1)c1cccnc1,0.868 ± 0.035
21,C[C@]12CC[C@@H]3c4ccc(O)cc4CC[C@H]3[C@@H]1CC[C@@H]2OC(=O)CCC1CCCC1,1.07 ± 0.051
22,CN1CCc2cccc3c2[C@H]1Cc1ccc(O)c(O)c1-3,0.944 ± 0.063
23,CCC(NC(C)C)C(O)c1ccc(O)c(O)c1 (stereo unspecified),0.995 ± 0.035
24,CCC(Cc1c(I)cc(I)c(N)c1I)C(=O)O (stereo unspecified),1.12 ± 0.081

row,Compound,normalized growth
1,CCOC(=O)C(C)(C)Oc1ccc(Cl)cc1,1.05 ± 0.05
2,C[C@@H]1[C@H](O)[C@@H](C)/C=C/C=C/C=C/C=C/C=C/C=C/C=C/[C@H](O[C@@H]2O[C@H](C)[C@@H](O)[C@H](N)[C@@H]2O)C[C@@H]2O[C@](O)(C[C@@H](O)C[C@@H](O)[C@H](O)CC[C@@H](O)C[C@@H](O)CC(=O)O[C@H]1C)C[C@H](O)[C@H]2C(=O)O,0.906 ± 0.041
3,CO[C@@]1(NC(=O)CSCC#N)C(=O)N2C(C(=O)O)=C(CSc3nnnn3C)CS[C@@H]21,0.957 ± 0.052
4,COc1ccc(CN(CCN(C)C)c2ncccn2)cc1,1.11 ± 0.038
5,NC(=O)c1ccc[n+]([C@@H]2O[C@H](COP(=O)([O-])OP(=O)(O)OC[C@H]3O[C@@H](n4cnc5c(N)ncnc54)[C@H](O)[C@@H]3O)[C@@H](O)[C@H]2O)c1,1.08 ± 0.019
6,NCC(=O)CCC(=O)O,0.864 ± 0.027
7,O=C(CCCN1CCC(O)(c2ccc(Cl)cc2)CC1)c1ccc(F)cc1,0.944 ± 0.032
8,O=C(O)/C=C/C(=O)O,0.948 ± 0.046
9,O=C(O)C[C@H](O)C[C@H](O)/C=C/c1c(C2CC2)nc2ccccc2c1-c1ccc(F)cc1,1.19 ± 0.13
10,Cc1ccc(C)c(OCCCC(C)(C)C(=O)O)c1,1.08 ± 0.015
11,CC1(C)[C@@H](O)CC[C@]2(C)[C@H]3C(=O)C=C4[C@@H]5C[C@@](C)(C(=O)O)CC[C@]5(C)CC[C@@]4(C)[C@]3(C)CC[C@@H]12,0.906 ± 0.073
12,C[C@]12CCC(=O)C=C1C=C[C@@H]1[C@@H]2CC[C@@]2(C)[C@H]1CC[C@@]21CCC(=O)O1,1.04 ± 0.036
13,COCCOC(=O)C1=C(C)NC(C)=C(C(=O)OC(C)C)C1c1cccc([N+](=O)[O-])c1 (stereo unspecified),0.944 ± 0.031
14,NCCS,1.09 ± 0.086
15,CN1C(C(=O)Nc2ccccn2)=C(O)c2ccccc2S1(=O)=O,1.069 ± 0.0048
16,COc1c(C)c2c(c(O)c1C/C=C(\C)CCC(=O)OCCN1CCOCC1)C(=O)OC2,1.01 ± 0.035
17,Cc1c(NC(C)C)c(=O)n(-c2ccccc2)n1C,0.981 ± 0.15
18,NCCc1cc[nH]n1,0.973 ± 0.14
19,COc1ccc([C@@H]2Sc3ccccc3N(CCN(C)C)C(=O)[C@@H]2OC(C)=O)cc1,0.958 ± 0.034
20,CN(C)CCN(Cc1ccc(Cl)cc1)c1ccccn1,0.988 ± 0.041
21,CCCCCCCCCCOc1cc2c(O)c(C(=O)OCC)cnc2cc1OCC,1.01 ± 0.03
22,CC(C[N+](C)(C)C)OC(N)=O (stereo unspecified),0.904 ± 0.054
23,O=C(O)CCCC[C@@H]1CCSS1,0.799 ± 0.033
24,Cc1cccc(Nc2ccncc2S(=O)(=O)NC(=O)NC(C)C)c1,1.09 ± 0.088

# 3 entries picked at random from those above:
row,Compound,normalized growth
12,C[C@]12CCC(=O)C=C1C=C[C@@H]1[C@@H]2CC[C@@]2(C)[C@H]1CC[C@@]21CCC(=O)O1,1.04 ± 0.036
24,Cc1cccc(Nc2ccncc2S(=O)(=O)NC(=O)NC(C)C)c1,1.09 ± 0.088
15,CN1C(C(=O)Nc2ccccn2)=C(O)c2ccccc2S1(=O)=O,1.069 ± 0.0048

# Structures shown so far that contain fluorine, in the order listed:
row,Compound,normalized growth
15,CC1CCc2c(N3CCC(O)CC3)c(F)cc3c(=O)c(C(=O)O)cn1c23 (stereo unspecified),0.0179 ± 0.013
7,O=C(CCCN1CCC(O)(c2ccc(Cl)cc2)CC1)c1ccc(F)cc1,0.944 ± 0.032
9,O=C(O)C[C@H](O)C[C@H](O)/C=C/c1c(C2CC2)nc2ccccc2c1-c1ccc(F)cc1,1.19 ± 0.13

# Continuation.

row,Compound,normalized growth
1,CN(C)c1cc(NC(=O)CNC(C)(C)C)c(O)c2c1C[C@H]1C[C@H]3[C@H](N(C)C)C(O)=C(C(N)=O)C(=O)[C@@]3(O)C(O)=C1C2=O,0.962 ± 0.053
2,CC1(C)O[C@@H]2[C@@H](CO[C@@]3(COS(N)(=O)=O)OC(C)(C)O[C@@H]23)O1,0.931 ± 0.034
3,COc1cc(NS(=O)(=O)c2ccc(N)cc2)nc(OC)n1,1.4 ± 0.14
4,CC[N+](CC)(CC(=O)Nc1c(C)cccc1C)Cc1ccccc1,0.978 ± 0.011
5,O=C1N=C(O)NC1(c1ccccc1)c1ccccc1,0.991 ± 0.094
6,CC(=O)OCC(=O)[C@@]1(O)[C@H](OC(C)=O)C[C@H]2[C@@H]3CCC4=CC(=O)C=C[C@]4(C)[C@@]3(F)[C@@H](O)C[C@@]21C,0.892 ± 0.038
7,CC(C)Cn1cnc2c(N)nc3ccccc3c21,0.975 ± 0.0099
8,NC(=O)N1c2ccccc2CC(=O)c2ccccc21,0.978 ± 0.15
9,Cc1nnc(SCC2=C(C(=O)O)N3C(=O)[C@@H](NC(=O)Cn4cnnn4)[C@H]3SC2)s1,0.755 ± 0.017
10,CCCC(=O)O[C@]1(C(=O)CO)CC[C@H]2[C@@H]3CCC4=CC(=O)CC[C@]4(C)[C@H]3[C@@H](O)C[C@@]21C,0.948 ± 0.033
11,CC1(C)S[C@@H]2[C@H](NC(=O)COc3ccccc3)C(=O)N2[C@H]1C(=O)O,0.961 ± 0.025
12,COc1ccc2c3c1O[C@H]1C[C@@H](O)C=C[C@@]31CCN(C)C2,0.9358 ± 0.0085
13,CC(C)NC(=N)NC(=N)Nc1ccc(Cl)cc1,0.878 ± 0.042
14,S=c1[nH]cnc2nc[nH]c12,0.518 ± 0.018
15,C[C@H]1O[C@@H](O[C@H]2[C@@H](O)C[C@H](O[C@H]3[C@@H](O)C[C@H](O[C@H]4CC[C@@]5(C)[C@H](CC[C@@H]6[C@@H]5CC[C@]5(C)[C@@H](C7=CC(=O)OC7)CC[C@]65O)C4)O[C@@H]3C)O[C@@H]2C)C[C@H](O)[C@@H]1O,0.932 ± 0.017
16,CC(=O)CC(c1ccc([N+](=O)[O-])cc1)c1c(O)c2ccccc2oc1=O (stereo unspecified),1.01 ± 0.021
17,CCCCCCCCNC(C)C(O)c1ccc(SC(C)C)cc1 (stereo unspecified),1.055 ± 0.0087
18,CC(=O)O[C@]1(C(C)=O)CC[C@H]2[C@@H]3C=C(C)C4=CC(=O)CC[C@]4(C)[C@H]3CC[C@@]21C,1.84 ± 0.093
19,NC[C@H]1O[C@H](O[C@H]2[C@H](O)[C@@H](O[C@H]3O[C@H](CO)[C@@H](O)[C@H](N)[C@H]3O)[C@H](N)C[C@@H]2N)[C@H](N)[C@@H](O)[C@@H]1O,1.04 ± 0.016
20,Cc1c(C)c2c(c(C)c1O)CCC(C)(CCCC(C)CCCC(C)CCCC(C)C)O2 (stereo not drawn) [alpha-TOCHOPHEROL],1.15 ± 0.11
21,Nc1nc(=O)[nH]cc1F,0.742 ± 0.12
22,CC[C@@]1(O)C(=O)OCc2c1cc1n(c2=O)Cc2cc3c(CN(C)C)c(O)ccc3nc2-1,1 ± 0.022
23,Nc1nnc(-c2cccc(Cl)c2Cl)c(N)n1,1 ± 0.028
24,C#CC1(O)CC[C@H]2[C@@H]3CCC4=CC(=O)CC[C@@H]4[C@H]3CC[C@@]21CC (stereo partly specified),0.941 ± 0.024

row,Compound,normalized growth
1,CC1=C(C(=O)O)N2C(=O)[C@@H](NC(=O)[C@H](N)c3ccccc3)[C@H]2SC1,0.912 ± 0.069
2,CC[C@H](C)C(=O)O[C@H]1C[C@H](O)C=C2C=C[C@H](C)[C@H](CC[C@@H](O)C[C@@H](O)CC(=O)O)[C@H]21,0.961 ± 0.048
3,CC(C)(C)NCC(O)COc1cccc2c1CC(O)C(O)C2 (stereo unspecified),0.945 ± 0.026
4,O=C(c1cccnc1)N1CCOCC1,0.959 ± 0.049
5,OCC(S)CS (stereo unspecified),0.695 ± 0.06
6,COc1ccc2cc3[n+](cc2c1OC)CCc1cc2c(cc1-3)OCO2,1.04 ± 0.024
7,COc1ccc2c(c1)c(CC(=O)OCC(=O)O)c(C)n2C(=O)c1ccc(Cl)cc1,1.109 ± 0.01
8,Cc1c2oc3c(C)ccc(C(=O)N[C@@H]4C(=O)N[C@H](C(C)C)C(=O)N5CCC[C@H]5C(=O)N(C)CC(=O)N(C)[C@@H](C(C)C)C(=O)O[C@@H]4C)c3nc-2c(C(=O)N[C@@H]2C(=O)N[C@H](C(C)C)C(=O)N3CCC[C@H]3C(=O)N(C)CC(=O)N(C)[C@@H](C(C)C)C(=O)O[C@@H]2C)c(N)c1=O,1.13 ± 0.033
9,CC(=O)NC[C@H]1CN(c2ccc(N3CCOCC3)c(F)c2)C(=O)O1,0.971 ± 0.044
10,O=C1C(O)=C(O)C(=O)C(O)=C1O,1.02 ± 0.014
11,Cc1nccn1CC1CCc2c(c3ccccc3n2C)C1=O (stereo unspecified),0.998 ± 0.039
12,NC(=O)c1cc[n+](CC2=C(C(=O)[O-])N3C(=O)[C@@H](NC(=O)Cc4cccs4)[C@H]3SC2)cc1,0.991 ± 0.077
13,N=C(N)N1CCc2ccccc2C1,0.919 ± 0.095
14,CC(=O)/N=c1/sc(S(N)(=O)=O)nn1C,0.898 ± 0.021
15,CC1=CC(=O)c2ccccc2C1=O,0.984 ± 0.017
16,C#C[C@]1(OC(C)=O)CC[C@H]2[C@@H]3CCC4=CC(=O)CC[C@@H]4[C@H]3CC[C@@]21C,1.14 ± 0.03
17,CCCCOC(=O)c1ccc(O)cc1,1.04 ± 0.02
18,COCCCOc1cc(C[C@@H](C[C@H](N)[C@@H](O)C[C@H](C(=O)NCC(C)(C)C(N)=O)C(C)C)C(C)C)ccc1OC,0.97 ± 0.033
19,CCCc1nc2c(C)cc(-c3nc4ccccc4n3C)cc2n1Cc1ccc(-c2ccccc2C(=O)O)cc1,1 ± 0.018
20,CCCCC1C(=O)N(c2ccccc2)N(c2ccccc2)C1=O,0.985 ± 0.018
21,O=C(CCCCC(=O)Nc1c(I)cc(I)c(C(=O)O)c1I)Nc1c(I)cc(I)c(C(=O)O)c1I,0.974 ± 0.021
22,Cc1ccc(C(=O)C(C)CN2CCCCC2)cc1 (stereo unspecified),0.968 ± 0.03
23,CNCC[C@@H](Oc1ccccc1C)c1ccccc1,0.9663 ± 0.0022
24,COCCCOc1ccnc(C[S+]([O-])c2nc3ccccc3[nH]2)c1C (stereo unspecified),1 ± 0.02
